Test results: patent US20180346555A1
No constants are given. Whether binding was seen depends on the method and setting. Some entries that bind do so weakly or less than the wild type. One block for each binder: values may come before it.

Experiments:
[1] = biological target: T1, natural Bet v 1 (Betula verrucosa (Betula pendula)) (UniProt P15494); experiment: SPR, 25C and 37C
T1 sequence: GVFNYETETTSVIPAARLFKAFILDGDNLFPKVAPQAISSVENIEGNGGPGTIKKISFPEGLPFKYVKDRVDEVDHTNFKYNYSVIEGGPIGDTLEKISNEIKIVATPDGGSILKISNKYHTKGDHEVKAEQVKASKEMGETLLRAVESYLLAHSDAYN

[2] = biological target: mutant Bet v 1-MMH (Betula verrucosa (Betula pendula)); experiment: SPR, 25C and 37C; members by Tables 4 and 5
[3] = biological target: T2, Celery (Api g 1) (Celery) (UniProt P49372); experiment: SPR, 25C; member by Table 8
T2 sequence (looked up): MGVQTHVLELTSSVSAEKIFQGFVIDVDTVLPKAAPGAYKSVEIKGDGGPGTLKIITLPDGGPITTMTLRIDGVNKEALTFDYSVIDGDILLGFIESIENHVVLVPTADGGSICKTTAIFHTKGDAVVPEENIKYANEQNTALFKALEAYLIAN

Alder (Aln g 1) (Alder) = Alder (Aln g 1) (Alder) (UniProt P38948); experiment: SPR, 25C; members by Table 6

binding [3]: binds | binding [1]: binds
B3: H4H17033P (antibody, human IgG4, V domains shown)
VH: QVQLVQSGAEVKKPGASVKVSCKASGYTFAAHYMHWVRQAPGQGLEWMGWINTYTGGTNYGQKFQGRVTMTRDTSITTAYMELSRLRSDDTAVYYCARDRRNWNFVFEYWGQGTLVTVSS
VL: DIQMTQSPSSLSASVGDRVTISCRASQNIKNYLNWYQQKPGKAPKLLIYEASNLQSGAPSRFSGSGSGTDFTLTISSLEPEDFATYYCQQSFSIPWTFGQGTKVEIK

binding [1]: binds
B4: H4H17015P (antibody, human IgG4, V domains shown)
VH: QVQLQESGPGLVKPSQTLSLTCTVSGGSISSADHYWSWIRQQPGKGLEWIGYISYRGTTYYNPTLESRVSISVDTFKNQFSLMLHSVTVADTAVYYCAKVLQGLVRFRDYGFDVWGQGTTVTVSS
VL: DIQLTQSPPFLSASVGDRVTITCWASQDISSYLAWYQQNPGKSPKLLIYDAFTLHTGVPSRFSGSGSGTEFTLTISSLQPEDFATFYCQHLYSFPFTFGPGTKVDIK

binding [1]: binds
B5: H4H17028P (antibody, human IgG4, V domains shown)
VH: QVQLVESGGGVVQPGRSLRLSCAASGFTFSRYAIHWVRQAPGKGLEWVAVISYDGDDKYYGDSVKGRFTISRDNSKTMVYLHMNSLRTEDTAVYYCAKDGYSLYGKDYFDYWGQGTLVTVSS
VL: EIVLTQSPGTLPLSPGERATLSCRASQSITNSYLAWYQQKPDQAPRLLIYGASSRATGIPDRFSGSESGTDFTLTISRLEPEDFAVYYCQQYVRSPWTFGQGTKVEIK

binding [1]: binds
B6: H4H17027P (antibody, human IgG4, V domains shown)
VH: EVQLVESGGGLVQPGGSLRLSCAASGFTFRNYAMHWVRQAPGEGLEWVAAIYRNSDSIDYADSVKGRFTISRDNAKNSLYLQMNSLKTEDTALYYCAKDEGFLEYFDSWGQGTLVTVSS
VL: EIVLTQSPGTLSLSPGERASLSCRASQSVSSSFLAWYQQKPGQAPRLLIYGVSSRFIGIPDRFSGGGSGTDFTLTITRLEPEDFAVYYCQQYGRSPWTFGQGTKVEIK

binding [1]: binds
B8: H4H17031P (antibody, human IgG4, V domains shown)
VH: QVQLQQWGAGLLKPSETLSLTCVVYGESFGNYHWNWIRQSPGKRLEWIGEINQNGHTNYNPSLKSRVTISVDTSKIQFSLRLNSVTAADTAVYFCARGHNYVNSYFGLDVWGQGTTVTVSS
VL: EIVMTQSPATLSVSPGERATLSCRTSQSVSISLAWYQRKPGQAPRLLIFGSSTRATGVPARFSGSGSGTEFTLTISSLQSEDFAVYYCQQYNNWPYTFGQGTKLEIK

Second part, the binder before the results:

B1: H4H17001P (antibody, human IgG4, V domains shown)
VH: QVQLVESGGGLVKPGGSLRLSCAASGFTFSDYYMNWIRQAPGKGLEWISLISSSGSAIYYSDSVKGRFTISRDNARKSLYLQVNSLRAEDTAVYYCARDRGEWALGAYYYGLDVWGQGTTVTVSS
VL: DIVMTQSPLSLPVTPGEPASISCRSSQSLLHSDGYNYLDWYLQKSGQSPQLLIYLGSNRASGVPDRFSGSGSGTDFTLKISRMEAEDVGVYYCMQALQTPYTFGQGTKLEIK
binding [1]: binds

B2: H4H16987P (antibody, human IgG4 S228P, kappa, V domains shown)
VH: EVQLVESGGGLVQPGGSLRLSCAASGFTVSSNSMSWVRQAPGEGLEWVSVIFSGGITYYSDSVKGRFTISRHNSKNTLYLQMNSLRTEDTAVYYCARHSNWNFDAFDIWGQGTMVTVSS
VL: DIQMTQSPSSLSASVGDRVTITCRASQSFDTYLNWYQQKPGKAPNLLIYATSSLQSGVPSRFSGSGSGTDFTLTISSLQPEDFGTYYCQQSYSIPYTFGQGTKLEIKR
binding [2]: binds | binding [1]: binds

B7: H4H16991P (antibody, human IgG4, V domains shown)
VH: QVQLVQSGAEVRKPGASVKVSCKASGYTFTGYYLHWVRQAPGQGLEWMGLINPNTGGTNFAQKFQGRVTMTRDSSISAAYMELSRLRSDDTAVYYCARQHWNRYFDNWGQGTLVTVSS
VL: DIQMTQSPSTLSASVGDRVTITCRASQSVGNWLAWYQQKPGKAPKLLIQEASSIESGVPSRFSGSGSGTEFTLIVSSLQPDDFATYYCQQYNSYSWTFGHGTKVEIK
binding [1]: binds

B9: H4H16946P (antibody, human IgG4, V domains shown)
VH: EVQLVESGGGLVQPGGSLRLSCVASGFTFSNYDMNWVRQAPGEGLEWISYISYSDHNIYYIDSVKGRFTISRDNAKNSLYLQMNSLRAEDTAIYYCAREALASSSFDYWGQGTLVTVSS
VL: EIVMTQSPATLSVSPGERVTLSCRASQSVSGNLAWYQQKPGQAPRLLIYSASTGATGVPARFSGSGSGTEFTLTISSLQSEDFALYYCQQYNKWPRTIGQGTKVEIK
binding [2]: binds | binding [1]: binds

B10: H4H16950P (antibody, human IgG4, V domains shown)
VH: QVQLVQSGAEVKKPGASVKVSCKTSGYTFTNYGITWVRQAPGQGLEWMGWISAYNGNTNYAQNVQGRVTMTTDTSTSTAYMEVRSLRSDDTAVYYCARRSSMLHFQHWGQGTLVTVSS
VL: DIVMTQSPDSLAVSLGERATINCKSSQHVLYDSSNENYLAWFQQKPGQPPKLLIYWASTRESGVPDRFSGSGSGTDFTLTISSLQAEDVAVYYCQQYSSAPYTFGQGTKLEIK
binding [1]: binds | binding (Alder (Aln g 1) (Alder)): binds

B11: H4H16960P (antibody, human IgG4, V domains shown)
VH: QLQLQESGPGLVRPSETLSLTCTVSGGSISSSNYWWGWIRQPPGKGLEWIGSIYYSGITYYNPSLKSRVTISADTSKDQFSLKLRSVTAADTAVYYCAKLEWLRLDFWGQGTTVTVSS
VL: DIQMTQSPSSVSASVGDRVTITCRASQGISSWLVWYQQKPGKVPKLLIYAASSLQSGVPLRFSGSGSGTDFTLTISSLQPEDFATYYCQQAKSFPLTFGQGTRLEIK
binding [1]: binds
